Experimental data published in PubChem BioAssay AID504834 (National Center for Advancing Translational Sciences (NCATS), 2011).
“And” between values parts separate entries of the source, which are not always exact repeats. Identical values can stand only once. The whole screen tested about 320,000 compounds, of which about 22,000 (6.9%) were called active. Inconclusive results, whose numbers are uncertain, are shown with a selection of clear calls. The call rests on the fitted dose curve; in most records, active means well fitted inhibition curve with a large enough effect; inconclusive means small, poorly fitted or top-dose-only effect, or another doubt; inactive means no such curve, though single readings can be large or run the other way. Where the call is inconclusive, the potency comes from a doubtful curve fit.

Test: Primary qHTS for delayed death inhibitors of the malarial parasite plastid, 96 hour incubation
Settings: P. falciparum luciferase reporter growth; series mostly up to 28.7 µM; activity change, negative = inhibition: at the top concentration
Outline: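 Infected RBCs, 2% Hct / 0.05% parasitemia final; luciferase-reporter P. falciparum; cpd 96 h, 37 C, 5% CO2; luciferase detection reagent; luminescence.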
On the % scale 0 is the no-effect control and ±100 the full control effect; potency means the concentration at half of the fitted maximal effect.

SMILES | Potency | activity change, negative = inhibition
COc1ccc(/C=C2\SC(=S)N(CCC(=O)N3CCCCC3CCO)C2=O)cc1 (stereo not given) | inconclusive: 9.28 µM [inhibitor, single point] | 
COc1cc2cnc(-c3ccccc3)c(-c3ccc([N+](=O)[O-])cc3)c2cc1OC | inconclusive: 10.4 µM [inhibitor, single point] | 
CSCC(=O)NCC1(N(C)Cc2ccccc2)Cc2ccccc2C1 |  | inactive: -10.6%
N#Cc1ccc(C(=O)Nc2cc(-c3ccccc3)nn2-c2ccccc2)cc1 | inconclusive: 2.33 µM [inhibitor, partial curve, poor fit] | 
O=C(Nc1cc(Cl)cc(Cl)c1)C(NCC1CCCO1)c1ccccc1 (stereo not given) | inconclusive: 18.5 µM [inhibitor, single point] | 
COc1ccc(/C=N/NC(=O)c2ccoc2C)cc1O |  | inactive: -19.7%
CC(C)NCC(O)c1ccc2ccccc2c1 (stereo not given) | active: 4.26 µM and active: 4.65 µM | 
CC(C)(C)OC(=O)NN1CC(=O)N2Cc3ccccc3C[C@@H]2C1=O |  | inactive: 3.7%
O=C(Nc1ccc(-c2csc(Nc3ccc(Cl)cc3)n2)cc1)c1cc([N+](=O)[O-])cc(C(F)(F)F)c1 | inconclusive: 0.465 µM [inhibitor, full curve] | 
CCNC(=S)N1CCN(S(=O)(=O)c2cccc(C(F)(F)F)c2)CC1 | inconclusive: 16.5 µM [inhibitor, single point] | 
Cc1ccc(NC(=O)COc2ccc(-c3nnco3)cc2)cc1S(=O)(=O)N1CCOCC1 | inconclusive: 18.5 µM [inhibitor, single point] | 
Cc1ccc(C2=CSC3=NCCN23)c(C)c1 | inconclusive: 18.5 µM [inhibitor, single point] | 
Cc1ccc(OCCn2cc(/C=N/NC(=O)c3ccncc3)c3ccccc32)cc1 | inconclusive: 18.5 µM [inhibitor, single point] | 
Cc1ccc(NC(=S)NC(NC(=O)C(C)(C)C)C(Cl)(Cl)Cl)c(C)c1 (stereo not given) | inconclusive: 10.4 µM [inhibitor, partial curve, poor fit] | 
CCN1CN(CCc2ccccc2)CNC1=S | inconclusive: 13.1 µM [inhibitor, single point] | 
CN(C)C(=O)c1ccc(-c2cc(C(F)(F)F)nn2C)s1 |  | inactive: 103%
O=C(CCl)NC1CCCc2ccccc21 (stereo not given) |  | inactive: 48.2%
Cc1ccc(NC(=S)N/N=C/c2c(C)nn(-c3ccccc3)c2N2CCCC2)cc1 | inconclusive: 10.4 µM [inhibitor, single point] | 
CCc1ccc(NC(=O)c2n[nH]c(=O)c3ccccc23)cc1 |  | inactive: 90.7%
Cc1cc(OCC(=O)NC(C)(C)C)ccc1Cl |  | inactive: -6.6%
